# Measured values published in PubChem BioAssay AID445 (National Center for Advancing Translational Sciences (NCATS), 2006).
# This is one part of the list. Shown are side measurements of this screen, not its main read-out; they come without a call. The list favours compounds with an active or inconclusive main result. Potencies come from curve fits of mixed quality, noted in brackets.
# Assay: IkB Signaling
# Conditions: ABC-DLBCL IkBa-CBG/CBR dual luciferase ratio (green luciferase fused to IkBa over red control in OCI-Ly3 lymphoma cells), 4 h
# Outline: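 Luminescence ratio of IκBα-fused green versus native red beetle luciferase in OCI-Ly3 cells, 4 h post-doxycycline with compound; red signal alone, scaled from basal (0%) to zero light (-100%), flagged nonspecific or cytotoxic effects.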
# [1] = measured here: control luc red channel unless noted
# [2] = measured here: IkB-luc green channel
# [3] = measured here: control luc red channel
smiles,measurement,setting,value
COc1ccc2sc(N(Cc3cccnc3)C(=O)C3CCCCC3)nc2c1,AC50,[1],"39.8 µM [falling, single point]"
CCOC(=O)c1cccc(NC(=O)c2cc3ccccn3n2)c1,AC50,[1],"25.1 µM [falling, partial curve]"
CC(C)OCCCn1c(SCC(=O)c2ccccc2)nc2c(sc3ccccc32)c1=O,AC50,[1],"3.16 µM [rising, partial curve, poor fit]"
Cc1cc(C)n2nc(CNS(=O)(=O)c3ccc(C)c(C)c3)nc2n1,AC50,[1],"25.1 µM [falling, single point]"
CCOC(=O)CSc1nnc(CSc2nc(N)c3c(C)c(C)sc3n2)n1-c1ccccc1,AC50,[1],"25.1 µM [falling, partial curve]"
O=C(C1CCN(S(=O)(=O)c2cccc3nonc23)CC1)N1CCN(c2cccc(Cl)c2)CC1,AC50,[1],"15.8 µM [falling, partial curve]"
COc1ccc(NC(=O)CSc2nc3nc(C)c(Cc4ccccc4)c(C)n3n2)cc1OC,AC50,[1],"1 µM [falling, partial curve, poor fit]"
COc1ccccc1N1CCN(C(=O)CSc2nnc(-c3ccoc3C)o2)CC1,AC50,[1],"39.8 µM [falling, single point]"
Cc1ccc(C)c(N2CCN(C(=O)c3cc4c(=O)n(Cc5ccccc5)ccc4nc3C)CC2)c1,AC50,[1],"25.1 µM [falling, single point]"
Cc1ccc2c(c1)N(C(=O)N1CCC(C(=O)NCCc3ccc(Cl)cc3)CC1)CC(C)O2 (stereo not given),AC50,[1],"39.8 µM [falling, single point]"
Cc1cccc(OCCCC(=O)Nc2nccs2)c1,AC50,[1],"25.1 µM [falling, single point]"
Cc1cc(F)ccc1S(=O)(=O)Nc1ccccc1C(=O)Nc1ncn[nH]1,AC50,[1],"25.1 µM [falling, partial curve]"
Cc1cccc(NS(=O)(=O)c2ccc3[nH]c4c(c3c2)CCCCCC4)c1,AC50,[1],"25.1 µM [falling, partial curve]"
CCOc1cccc2c1N[C@@H](c1ccc(C(=O)O)cc1)[C@H]1CC=C[C@@H]21,AC50,[1],"39.8 µM [falling, single point]"
Cc1ccc(-n2nc(C)c3c(C)c(CCC(=O)NCc4ccccc4Cl)c(C)nc32)cc1C,AC50,[1],"1.58 µM [falling, full curve, poor fit]"
Cc1cccc(-c2nc(CCNC(=O)Cc3ccccc3)cs2)c1,AC50,[1],"0.1 µM [rising, full curve]"
O=C(COc1ccc(Cl)cc1)Nc1ccc2nc(SCC(=O)N3CCCC3)sc2c1,AC50,[1],"2 µM [falling, partial curve]"
C/C=C(\CS(=O)(=O)c1ccccc1)S(=O)(=O)c1ccccc1,AC50,[1],"7.94 µM [falling, partial curve]"
O=S(=O)(Nc1ccc2c(c1)oc1ccccc12)N1CCCC1,AC50,[1],"20 µM [falling, single point]"
CCOC(=O)c1c(-c2ccccc2)oc2ccc(N(C(C)=O)S(=O)(=O)c3ccc(CC)cc3)cc12,AC50,[1],"5.01 µM [falling, full curve]"
CCOc1ccccc1N(C(=O)c1snc(C(N)=O)c1N)C(C(=O)NC1CCCC1)c1ccco1 (stereo not given),AC50,[1],"39.8 µM [falling, single point]"
COc1ccccc1Nc1nc(N)nc(CSCCO)n1,AC50,[2],"25.1 µM [rising, single point]"
same,AC50,[3],"20 µM [falling, partial curve]"
O=C(COc1ccccc1-c1nc(-c2ccccc2)no1)Nc1cccc([N+](=O)[O-])c1,AC50,[1],"25.1 µM [falling, partial curve]"
Cc1ccc(CCNC(=O)c2cc3c(s2)-c2c(C)cccc2OC3)cc1,AC50,[1],"15.8 µM [falling, partial curve]"
CCOc1ccc(C2CC(c3c(O)n(C4CCCCC4)c(=O)[nH]c3=O)=Nc3ccccc3S2)cc1 (stereo not given),AC50,[1],"25.1 µM [falling, single point]"
O=C(Nc1sc2c(c1C(=O)NCc1cccnc1)CCCC2)c1cc(=O)c2ccccc2o1,AC50,[1],"6.31 µM [falling, partial curve]"
Cc1ccc(NS(=O)(=O)c2ccc(-n3cccn3)cc2)cc1Cl,AC50,[1],"7.94 µM [falling, partial curve]"
O=C(Cc1ccc(F)cc1)NCc1ccc2c(c1)CCN2C(=O)c1ccc(F)cc1,AC50,[1],"31.6 µM [falling, single point]"
COc1cccc(-n2c(SCC(=O)Nc3c(C)cc(C)cc3C)nc3c([nH]c4ccccc43)c2=O)c1,AC50,[1],"0.1 µM [falling, full curve, poor fit]"
C=CCn1c(=O)c(C(=O)Nc2ccccc2OC)c(O)c2ccccc21,AC50,[1],"0.251 µM [falling, full curve]"
CCOc1ccc(C(=O)NC2CC(=O)N(c3ccc(C)cc3)C2)cc1OCC (stereo not given),AC50,[1],"1 µM [falling, partial curve]"
COc1ccc(NC(=O)CSc2nc3c(c(=O)n2-c2ccc(F)cc2)SCC3)cc1,AC50,[1],"3.98 µM [falling, full curve]"
CC1CCN(S(=O)(=O)c2ccc3c(ccn3CCC(=O)NCc3ccccc3F)c2)CC1,AC50,[1],"31.6 µM [falling, partial curve]"
CCC(C)(C)n1nnnc1C(c1cccs1)N1CCc2ccccc21 (stereo not given),AC50,[1],"25.1 µM [falling, partial curve]"
COc1ccc(NC(=O)c2c(-c3ccccc3)c(-c3ccccc3)nn(C)c2=O)cc1OC,AC50,[1],"12.6 µM [falling, partial curve]"
Cc1cccc(-n2ncc3c(Nc4ccc(C)c(Cl)c4)ncnc32)c1,AC50,[1],"12.6 µM [rising, partial curve]"
Cc1ccccc1NC(=O)CCS(=O)(=O)c1cc(Br)cc2c1N(C(=O)C1CC1)CC2,AC50,[1],"10 µM [falling, partial curve]"
Cc1ccccc1CNC(=O)CN1C(=O)C2CCCCN2c2ccc(C(=O)N3CCCC3)cc21 (stereo not given),AC50,[1],"31.6 µM [falling, partial curve]"
COC(=O)c1ccc(COc2ccc(C3C4=C(CCCC4=O)Nc4onc(C)c43)cc2)cc1 (stereo not given),AC50,[1],"20 µM [falling, single point]"
Cc1ccccc1OCC(=O)Nc1cccc(C(=O)OCc2cc(=O)n3c(C)csc3n2)c1,AC50,[1],"10 µM [falling, partial curve]"
Cc1ccc(S(=O)(=O)Cc2ccc(C(=O)N3CCN(c4cccc(Cl)c4)CC3)o2)cc1,AC50,[1],"25.1 µM [falling, single point]"
O=C(Cn1c(=O)n(-c2ccc(Cl)cc2)c(=O)c2sc3ccccc3c21)NC1CCCC1,AC50,[1],"39.8 µM [falling, single point]"
COC(=O)c1ccccc1NC(=O)c1cc2cc(C)ccc2n1C,AC50,[1],"3.98 µM [rising, partial curve]"
CCc1nc2cccnc2n1-c1ccc(CC(=O)Nc2cccc(C)c2C)cc1,AC50,[1],"31.6 µM [falling, single point]"
c1ccc(CN2CCN(c3ncnc4c3cnn4-c3ccccc3)CC2)cc1,AC50,[1],"39.8 µM [rising, single point]"
CCc1cc(C(=O)Cc2ccc(F)cc2)c(O)cc1O,AC50,[1],"7.94 µM [falling, full curve, poor fit]"
CCc1cccc(NC(=O)C2CCC(CNS(=O)(=O)c3ccc(Br)s3)CC2)c1 (stereo not given),AC50,[1],"12.6 µM [falling, partial curve]"
Cc1cc(NC(=O)c2noc3c2CCCC3)nn1Cc1ccc(Cl)cc1,AC50,[1],"10 µM [falling, partial curve]"
CSCCC(NC(=O)c1cncc(Br)c1)C(=O)O (stereo not given),AC50,[1],"20 µM [falling, partial curve]"
Cc1ccccc1Cn1c2ccccc2c2cnn(CC(=O)NCc3ccccn3)c(=O)c21,AC50,[1],"31.6 µM [falling, single point]"
O=C(NCCc1ccccc1)C1CCC(CNS(=O)(=O)c2ccc(Cl)cc2)CC1 (stereo not given),AC50,[1],"20 µM [rising, partial curve, poor fit]"
Cc1ccc(C)c(N2CCN(C(=O)NCc3noc4ccc(C)cc34)CC2)c1,AC50,[1],"12.6 µM [falling, partial curve]"
COc1ccc(-c2nc(N3CCOCC3)nc3n[nH]c(N)c23)cc1,AC50,[1],"39.8 µM [falling, single point]"
Cc1nn(-c2ccc(C(=O)O)cc2)c(=O)c2ccccc12,AC50,[1],"15.8 µM [falling, partial curve]"
CCOC(=O)c1ccc(N=c2sc(C(=O)OC)cc(=O)n2CCCN2CCOCC2)cc1,AC50,[1],"10 µM [falling, partial curve]"
COc1ccc2[nH]c3c(c2c1)CCN(C(=O)c1cccc(Cl)c1)C3c1ccc(F)cc1 (stereo not given),AC50,[1],"39.8 µM [falling, single point]"
COc1cc2cc(C(=O)Nc3ccccc3)c(N)nc2cc1OC,AC50,[2],"15.8 µM [falling, partial curve]"
same,AC50,[3],"25.1 µM [falling, partial curve]"
COc1ccc(C(=O)c2oc3ccccc3c2N)cc1,AC50,[1],"0.126 µM [rising, full curve, poor fit]"
COc1ccc(-c2cn3cccnc3n2)cc1NC(=O)Nc1ccc(Cl)cc1,AC50,[1],"39.8 µM [falling, single point]"
Cn1c(C(=O)NCCc2c[nH]c3ccccc23)cc2sccc21,AC50,[1],"31.6 µM [falling, single point]"
O=C(Nc1ccc(S(=O)(=O)Nc2ncccn2)cc1)c1cc(=O)c2ccccc2o1,AC50,[1],"3.16 µM [falling, single point]"
O=C(NCc1ccco1)c1cc2ccccc2o1,AC50,[1],"7.94 µM [falling, full curve]"
CCOc1ccc(NC(=O)c2ccc3c(c2)CCN3S(=O)(=O)CC)cc1,AC50,[1],"10 µM [falling, partial curve]"

# An excerpt of these results, bar-delimited.
smiles | measurement | setting | value
CCOc1ccc(C2CC(c3c(O)n(C4CCCCC4)c(=O)[nH]c3=O)=Nc3ccccc3S2)cc1 (stereo not given) | AC50 | [1] | 25.1 µM [falling, single point]
CCC(C)(C)n1nnnc1C(c1cccs1)N1CCc2ccccc21 (stereo not given) | AC50 | [1] | 25.1 µM [falling, partial curve]
